From ChEMBL document CHEMBL3988442, “University of Dundee, Small-Polar-MMV Screening Library” (2021).

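Whole-cell growth test on Mycobacterium tuberculosis, read after 3 days in glucose-containing 7H9 medium; the read-out is not stated. Concentration: 50 µM. Direction is inferred from retests: higher values go with more growth inhibition. Of about 69,000 compounds tested this way, about 760 (1.1%) reached 50% or more in at least one test.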

Values are the deposited “Percent Effect”, in %.
How 0% and 100% were set is not recorded. Most values in the screen are low, and negative values occur.
Compounds were drawn at random from those tested, without regard to their results.
Two or more numbers in one place are separate tests of the same structure; such repeats can differ widely.

| Compound | effect |
|---|---|
| `O=C(O)C(F)(F)F.O=C(O)C(F)(F)F.[H][C@@]12CCN(C(=O)c3cnn(C)c3)[C@@]1([H])CCN2Cc1ccncc1` | -2.172 |
| `CCCNC(=O)CCNC(=O)N1CCC(=Cc2ccccc2)CC1` | 13.17 and 4.469 |
| `Cc1nc(CN(C)S(=O)(=O)c2ccccc2Br)no1` | -5.241 and 5.833 |
| `O=C1CCSCC(C(=O)N2CCOCC2)N1` (configuration not stated) | 10.77 and -7.983 |
| `O[C@@H]1C[C@@H](c2nc(Cc3ccccc3)no2)N(CC2CC2)C1` | 10.42 and 8.041 |
| `COc1cc(C(C)=O)ccc1OC12CCCN(CC1)C2` (configuration not stated) | -32.99 |
| `Cn1nc(C2CCCN(Cc3ccsc3)C2)c2nccnc21` (configuration not stated) | -18.51 |
| `COCCC(=O)N1CCCC2(CCCN2Cc2ccccc2F)C1.O=C(O)C(F)(F)F` (configuration not stated) | -15.96 |
| `C[C@]1(O)CCN(Cc2cncs2)C[C@@H]1Oc1cccc(F)c1` | -3.758 |
| `O=C(COC1CCCCC1)NS(=O)(=O)c1ccc2c(c1)OCCCO2` | -12.19 |
| `O[C@@H]1CN(c2nc3ccccc3s2)CC[C@H]1c1ccc2c(c1)OCO2` | 20.24 |
| `Cc1cnc(C2(C)CCN(Cc3cscn3)CC2)s1` | 9.866 |
| `Cn1cc2c(n1)C(CNC1CCOCC1)OCC2.O=C(O)C(F)(F)F` (configuration not stated) | -36.14 and 20.95 |
| `Cc1cc(C(F)(F)F)nc(CNC(=O)CCCN2CCCCC2)n1` | -19.03 |
| `CCOc1ncccc1CNS(=O)(=O)c1ccc2c(c1)CCC2` | -18.75 |
| `CC(=O)c1cccc(NC(=O)N2CCCCC2CN2CCCC2=O)c1` (configuration not stated) | 27.91 |
| `O=C(NCc1ccccc1-n1cccn1)N1CCC(N2CCCC2)C1` (configuration not stated) | -13.05 |
| `COCCN(Cc1ccoc1)C(=O)CSc1ccc(F)cc1` | 0.1393 |
| `CCc1csc(C2CCCN(C(=O)c3ncccn3)C2)n1` (configuration not stated) | 29.1 |
| `CCn1c(-c2ccccc2)nn(CC(=O)NCCc2ccc(C)o2)c1=O` | -5.133 |
| `CN(C)Cc1cnc2n1CCN(C(=O)NCc1ccccc1)CC2.O=C(O)C(F)(F)F` | -29.6 and -0.4454 |
| `COC(=O)c1ccc(N2CCN(Cc3csc(C)n3)CC2)nn1` | -1.348 and 4.24 |
| `O=C(NCCN1CCOCC1)c1ccnn1-c1ccc2ccccn12.O=C(O)C(F)(F)F` | -2.877 and 12.93 |
| `CNC(=O)CCc1cc(C2CCCCN2C(C)C)nc(C)n1` (configuration not stated) | 11.78 |
| `Cc1cccc(-c2nc(CN3CCCCC3Cn3cncn3)no2)c1` (configuration not stated) | -9.377 |
| `O=C(c1ccc(Cl)o1)N1CCCC(c2cc(C(F)(F)F)[nH]n2)C1` (configuration not stated) | 46.57 |
| `NC(=O)CCCNC(=O)Cc1csc(Cc2ccccn2)n1` | -11.22 |
| `O=C(O)C(F)(F)F.O=C(c1ccoc1)N1CCC2(CC1)COC(COc1ccccn1)C2` (configuration not stated) | 0.3673 and -0.959 |
| `NC(=O)c1cccc(OCCC(=O)NC2CCc3c(F)cccc32)c1` (configuration not stated) | 18.73 |
| `CCO[C@H]1CN(C)C[C@@H]1NC(=O)c1cc(C)nc2c(C)cccc12` | 2.336 |
| `COc1nc2ccn(CCc3scnc3C)c(=O)c2cc1C#N` | -13.54 |
| `CSCCC(CO)NC(=O)c1ccc2[nH]/c(=N\S(C)(=O)=O)sc2c1` (configuration not stated) | -2.909 |
| `COc1ccccc1COCC(O)CN(C)Cc1cccc(Cl)c1` (configuration not stated) | 6.122 |
| `CCCn1nc2c(cc1=O)CN(c1ncnc3sccc13)CC2` | 6.337 |
| `CN(CCc1ccccn1)C(=O)Nc1cccnc1-n1cccn1` | 38.44 |
| `CCSc1cncc(N2CCC(C(=O)Nc3ccccn3)CC2)n1` | 38.09 |
| `COc1ccc(N(C)C(=O)c2ccc(Cl)c(S(C)(=O)=O)c2)cn1` | 12.4 |
| `O=C(O)C(F)(F)F.[H][C@]12CCC[C@@]1(COc1cccnc1)CN(C(=O)C1CCOCC1)C2` | -3.378 |
| `CN(Cc1ccc(C#N)cc1)C(=O)c1ccnc(OC2CCC2)c1` | -8.757 and 3.877 |
| `O=C(O)CCCC(=O)Nc1cnn(COc2ccc(F)cc2Cl)c1` | 10.76 |
| `CCc1ncc(C(=O)NCCN2CCNC2=O)cn1` | -8.397 |
| `Cc1ccc(NS(=O)(=O)CC2=NC(=O)n3cccc3C2=O)cc1` | 12.26 |
| `Cc1n[nH]c(C)c1CCN(C)C(=O)c1ccc(CN2CCCCC2)cc1` | -43.79 and -3.727 |
| `N[C@@H]1CCN(Cc2cc(-c3ccccc3OC(F)(F)F)no2)C[C@H]1O` | 29.44 |
| `CCOC(=O)N1CCN(C(=O)c2cc(-c3ccccc3F)on2)CC1` | -16.62 |
| `CCCC1(CO)CCCN(C(=O)CCCn2nc(C)cc2C)C1` (configuration not stated) | 14.73 |
| `O=C(O)C(F)(F)F.O=C(O)C(F)(F)F.[H][C@@]12CCCO[C@]1([H])[C@H](N(C)Cc1ccco1)CN2Cc1ccc(OC)cc1` | -9.49 |
| `CCc1nc(C)sc1CN1CC[C@@](O)(C2CC2)[C@H](C)C1` | 13.43 |
| `[H][C@]12CN(Cc3ccc(OC)cc3)C(=O)[C@@]1([H])CN(S(=O)(=O)C1CC1)C2` | -5.412 |
| `COc1cc([C@@H]2N[C@H](c3nccs3)Cc3ccsc32)cc(OC)c1OC` | -14.04 |
| `CC(C)c1noc(CCCC(=O)N2CCN(Cc3ccncc3)CC2)n1` | -12.64 |
| `Cn1ccnc1CN1CCOC(Cn2cccn2)C1` (configuration not stated) | -2.231 |
| `CC(C(N)=O)N1CCN(c2ncc(Br)cn2)CC1` (configuration not stated) | 11.99 |
| `Cc1nc(C)c(C(=O)N2CCCC(C(=O)c3nccn3C)C2)s1` (configuration not stated) | -7.689 |
| `CC(NC(=O)COc1nc(C(C)(C)C)no1)c1ccco1` (configuration not stated) | -14.54 |

Some entries from above, unchanged:

{"compound": "CCCNC(=O)CCNC(=O)N1CCC(=Cc2ccccc2)CC1", "effect": "13.17 and 4.469"}
{"compound": "Cn1nc(C2CCCN(Cc3ccsc3)C2)c2nccnc21", "stereo": "configuration not stated", "effect": -18.51}
{"compound": "COc1cc([C@@H]2N[C@H](c3nccs3)Cc3ccsc32)cc(OC)c1OC", "effect": -14.04}
{"compound": "CC(C)c1noc(CCCC(=O)N2CCN(Cc3ccncc3)CC2)n1", "effect": -12.64}
{"compound": "COCCN(Cc1ccoc1)C(=O)CSc1ccc(F)cc1", "effect": 0.1393}